Source: publication PMC8639918, “Mechanism of phosphate sensing and signaling revealed by rice SPX1-PHR2 complex structure” (Nature Communications, 2021)
No constants are given. Whether binding was seen depends on the method and setting.

Protein sequences, listed by entry. Tags and fused reporters are not part of them. Lines headed by an entry give the natural chain unless they say otherwise; changes in a name come on top. Chains listed by the source or under a name are the forms on record and can include a tag or linker.
PHR2^230–426 L358A (Q6Z156, form named): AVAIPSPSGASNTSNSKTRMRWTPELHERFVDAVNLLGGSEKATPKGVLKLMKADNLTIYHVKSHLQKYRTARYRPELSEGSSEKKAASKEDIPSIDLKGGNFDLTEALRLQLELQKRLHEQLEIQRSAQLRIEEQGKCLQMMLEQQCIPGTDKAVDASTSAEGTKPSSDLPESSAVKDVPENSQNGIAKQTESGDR
PHR2^230–426 I362A (Q6Z156, form named): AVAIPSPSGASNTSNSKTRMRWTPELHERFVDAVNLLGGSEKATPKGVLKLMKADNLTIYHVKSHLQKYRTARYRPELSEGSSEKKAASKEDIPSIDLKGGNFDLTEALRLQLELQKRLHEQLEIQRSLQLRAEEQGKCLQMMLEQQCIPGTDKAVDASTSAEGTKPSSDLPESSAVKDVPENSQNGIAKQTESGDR
PHR2^230–426 L348A (Q6Z156, form named): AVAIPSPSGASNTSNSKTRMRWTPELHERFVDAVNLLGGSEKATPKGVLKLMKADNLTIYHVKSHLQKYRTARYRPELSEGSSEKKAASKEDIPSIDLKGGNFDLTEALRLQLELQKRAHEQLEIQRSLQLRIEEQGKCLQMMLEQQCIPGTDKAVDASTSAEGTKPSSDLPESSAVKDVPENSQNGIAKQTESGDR
PHR2^(230–426 L348A/L358A/I362A) (Q6Z156, form named): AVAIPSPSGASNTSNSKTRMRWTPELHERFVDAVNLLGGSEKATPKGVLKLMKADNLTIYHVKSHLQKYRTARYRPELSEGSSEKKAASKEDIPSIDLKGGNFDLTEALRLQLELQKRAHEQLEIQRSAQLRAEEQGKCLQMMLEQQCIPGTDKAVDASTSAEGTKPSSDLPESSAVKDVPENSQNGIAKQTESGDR
PHR2^230–426 L344R/Q351R/Q355R (Q6Z156, form named): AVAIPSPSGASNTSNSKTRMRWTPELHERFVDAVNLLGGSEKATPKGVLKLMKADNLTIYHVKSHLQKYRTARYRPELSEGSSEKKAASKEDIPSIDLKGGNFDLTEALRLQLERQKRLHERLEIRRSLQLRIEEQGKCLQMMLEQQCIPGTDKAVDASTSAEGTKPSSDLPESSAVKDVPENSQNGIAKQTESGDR

How the values were obtained:
[1] = molecular target: PHR2^230–426 L358A (rice) (UniProt Q6Z156); experiment: SEC; gel filtration, buffer C (20 mM Tris/HCl pH 8.0, 200 mM NaCl, 1 mM TCEP) without InsP6; samples incubated at 4 °C for 12 h (Fig. 1b, c); both purified
[2] = molecular target: PHR2^230–426 L358A (rice) (UniProt Q6Z156); experiment: SEC-MALS; Superdex 200 Increase 10/300 GL, buffer C (20 mM Tris/HCl pH 8.0, 200 mM NaCl, 1 mM TCEP) without InsP6, 2–3 mg/ml, 4 °C; both purified
[3] = molecular target: PHR2^230–426 I362A (rice) (UniProt Q6Z156); experiment: SEC; gel filtration, buffer C (20 mM Tris/HCl pH 8.0, 200 mM NaCl, 1 mM TCEP) without InsP6; samples incubated at 4 °C for 12 h (Fig. 1b, c); both purified
[4] = molecular target: PHR2^230–426 I362A (rice) (UniProt Q6Z156); experiment: SEC-MALS; Superdex 200 Increase 10/300 GL, buffer C (20 mM Tris/HCl pH 8.0, 200 mM NaCl, 1 mM TCEP) without InsP6, 2–3 mg/ml, 4 °C; both purified
[5] = molecular target: PHR2^230–426 L348A (rice) (UniProt Q6Z156); experiment: SEC; gel filtration, buffer C (20 mM Tris/HCl pH 8.0, 200 mM NaCl, 1 mM TCEP) without InsP6; samples incubated at 4 °C for 12 h (Fig. 1b, c); both purified
[6] = molecular target: PHR2^230–426 L348A (rice) (UniProt Q6Z156); experiment: SEC-MALS; Superdex 200 Increase 10/300 GL, buffer C (20 mM Tris/HCl pH 8.0, 200 mM NaCl, 1 mM TCEP) without InsP6, 2–3 mg/ml, 4 °C; both purified
[7] = molecular target: PHR2^(230–426 L348A/L358A/I362A) (rice) (UniProt Q6Z156); experiment: as above
[8] = molecular target: PHR2^230–426 L344R/Q351R/Q355R (rice) (UniProt Q6Z156); experiment: SEC; gel filtration, buffer C (20 mM Tris/HCl pH 8.0, 200 mM NaCl, 1 mM TCEP) without InsP6; samples incubated at 4 °C for 12 h (Fig. 1b, c); both purified
[9] = molecular target: PHR2^230–426 L344R/Q351R/Q355R (rice) (UniProt Q6Z156); experiment: SEC-MALS; Superdex 200 Increase 10/300 GL, buffer C (20 mM Tris/HCl pH 8.0, 200 mM NaCl, 1 mM TCEP) without InsP6, 2–3 mg/ml, 4 °C; both purified

PHR2^230–426 L358A (from UniProt Q6Z156 230-426) (domain or fragment)
binding [1]: no binding
binding [2]: no binding

PHR2^230–426 I362A (from UniProt Q6Z156 230-426) (domain or fragment)
binding [3]: no binding
binding [4]: no binding

PHR2^230–426 L348A (from UniProt Q6Z156 230-426) (domain or fragment)
binding [5]: no binding
binding [6]: no binding

PHR2^(230–426 L348A/L358A/I362A) (from UniProt Q6Z156 230-426) (domain or fragment)
binding [7]: no binding

PHR2^230–426 L344R/Q351R/Q355R (from UniProt Q6Z156 230-426) (domain or fragment)
binding [8]: no binding
binding [9]: no binding
